Experimental data: PubChem BioAssay AID652243 (Drosophila RNAi Screening Center, 2013)
Screen: 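Knock-downs that decrease or increase androgen receptor reporter signal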 (primary screen). Cell system: Drosophila S2R+ cells. Knock-down reagent: long dsRNA against Drosophila genes. Timing: 72 h (48 h, then 24 h hormone). Conditions: synthetic androgen R1881 at 10 nM for 24 h. Detection: 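Firefly light from an androgen-responsive reporter and Renilla control light per well, raw and unnormalised, for each of two replicates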. Direction: firefly reporter light: higher = more light from androgen-responsive reporter; Renilla control light: higher = more constitutive control signal (cell number, transfection). Call rule: 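Hit when the log firefly-to-Renilla ratio dropped or increased by a fixed fold versus the mean of GFP or LacZ controls across duplicate plates; lowering cut given as 1.5 and as 3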. Meaning of the calls: active = hit: reporter lowered or raised; inactive = no hit.
In all, the deposit lists about 24,000 reagents; shown is a random part of those that have a named target and a result. Over the whole deposit, 246 (1%) are marked active. 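Plates not normalised; calls are printed but the firefly/Renilla ratio behind them is not deposited; fold cut for lowering reported inconsistently.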 Raw values vary from plate to plate and are shown uncorrected. The numbers tell different reagents against one gene apart. A plus sign joins genes that one reagent is predicted to hit. Reagent sequences are not shown. Not given: the amount of reagent.

target	reagent no.	firefly reporter light, replicate 1	firefly reporter light, replicate 2	Renilla control light, replicate 1	Renilla control light, replicate 2	outcome
CG32628 (retired record)	1	2.07e5	2.06e5	2.84e6	3.09e6	inactive
CG8252	1	6.57e5	7.60e5	1.06e6	8.68e5	inactive
CG8252	2	5.64e5	5.48e5	1.34e6	1.41e6	inactive
CG17994	1	4.17e5	4.80e5	3.34e6	3.09e6	inactive
CG42560 + CG42559	1	6.12e5	7.33e5	4.26e5	4.15e5	inactive
CG41056 (retired record)	1	1.15e6	9.11e5	2.44e6	1.99e6	inactive
CG12347	1	2.39e5	2.89e5	3.05e6	2.30e6	inactive
CG14963	1	70930	53022	7.33e5	9.28e5	inactive
CG3961	1	14728	36502	1.80e5	1.79e5	inactive
CG3961	2	2.70e5	4.18e5	3.33e6	4.70e6	inactive
Syx6	1	7.27e5	1.12e6	9.98e5	1.62e6	inactive
Syx6	2	2.72e5	2.89e5	8.04e5	4.99e5	inactive
haf	1	95284	84890	8.01e5	8.80e5	inactive
CG30039	1	4.32e5	5.02e5	1.70e6	2.66e6	inactive
CG30039	2	9.32e5	1.02e6	1.38e6	1.38e6	inactive
CG14630	1	1.04e5	1.09e5	2.32e6	2.57e6	inactive
CG14630	2	1.38e5	1.40e5	2.75e6	2.20e6	inactive
ng1	1	2.53e5	3.56e5	3.04e6	2.95e6	inactive
bc10	1	1.77e5	2.34e5	1.79e6	2.09e6	inactive
isoQC	1	2.16e5	1.43e5	1.05e6	1.35e6	inactive
isoQC	2	4.68e5	3.90e5	7.34e5	1.11e6	inactive
Ptth	1	1.18e5	99312	6.30e5	7.78e5	inactive
CG15597	1	5.86e5	6.74e5	2.36e6	1.93e6	inactive
CG15597	2	1.48e6	1.26e6	5.05e5	4.84e5	inactive
CG14075	1	2.47e5	3.38e5	1.99e6	2.79e6	inactive
Arl6	1	1.62e5	1.44e5	1.83e6	1.94e6	inactive
CG33458	1	8.59e5	8.31e5	2.04e6	2.68e6	inactive
CG7985	1	1.00e5	86545	8.53e5	6.51e5	inactive
PolrMT	1	7.36e5	1.04e6	1.92e6	1.39e6	inactive
CG33643	1	7.38e5	7.44e5	1.99e6	1.91e6	inactive
msd5	1	44961	1.01e5	6.66e5	7.28e5	inactive
msd5	2	2.45e5	2.69e5	4.86e5	6.36e5	inactive
CG6432	1	87108	60112	5.97e5	4.79e5	inactive
Rsph9	1	1.35e5	1.88e5	4.52e5	7.40e5	inactive
Rsph9	2	5.00e5	4.02e5	1.33e6	1.13e6	inactive
CG14717	1	1.61e5	2.42e5	2.63e6	2.91e6	inactive
CG14315	1	1.31e5	1.31e5	1.13e6	1.31e6	inactive
up	1	20139	18896	2.69e5	2.15e5	inactive
up	2	2.87e5	2.71e5	9.38e5	1.09e6	inactive
Sf3b1	1	63857	85991	6.44e5	6.63e5	inactive
Sf3b1	2	2.01e5	4.20e5	7.74e5	1.28e6	inactive
jeb	1	1.81e5	1.60e5	9.82e5	1.28e6	inactive
jeb	2	3.30e5	2.36e5	1.59e6	1.65e6	inactive
jeb	3	3.09e5	2.35e5	8.09e5	5.85e5	inactive
CG14708	1	1.05e5	1.74e5	2.06e6	2.26e6	inactive
CG14708	2	4.06e5	3.20e5	9.52e5	8.35e5	inactive
CG2006	1	8.72e5	9.95e5	1.24e6	1.39e6	inactive
Ccp84Ac	1	46369	64238	1.12e6	1.00e6	inactive
Ccp84Ac	2	7.65e5	7.87e5	1.09e6	1.09e6	inactive
Dnaaf5	1	1.41e5	1.73e5	1.83e5	2.58e5	inactive
CG41497 (retired record)	1	1.03e6	7.85e5	1.92e6	2.45e6	inactive
wgn	1	5.38e5	3.39e5	1.84e6	7.00e5	inactive
stx	1	5.68e5	6.66e5	7.17e5	6.52e5	inactive
stx	2	2.21e5	2.20e5	8.00e5	8.00e5	inactive
CG3124	1	6.77e5	8.42e5	8.21e5	1.02e6	inactive
CG3124	2	3.81e5	2.75e5	6.30e5	6.82e5	inactive
CG33306	1	8.46e5	6.71e5	1.04e6	1.29e6	inactive
CG33306	2	4.03e5	8.63e5	1.71e6	1.47e6	inactive
Elovl7	1	85247	84967	2.23e6	1.50e6	inactive
Elovl7	2	3.88e5	4.87e5	1.31e6	1.83e6	inactive
Elovl7	3	6.12e5	8.65e5	6.92e5	9.37e5	inactive
SdhB	1	5.92e5	8.46e5	1.73e6	2.43e6	inactive
SdhB	2	5.43e5	4.50e5	4.84e5	4.38e5	inactive
Cyp9b1	1	3.10e5	2.90e5	1.62e6	1.23e6	inactive
Cyp9b1	2	5.75e5	3.82e5	5.61e5	4.85e5	inactive
CG33061	1	2.97e5	3.07e5	2.45e6	1.85e6	inactive
CG33061	2	8.60e5	1.13e6	9.44e5	1.46e6	inactive
Zwilch	1	2.15e5	2.64e5	1.76e6	2.15e6	inactive
CG31288	1	2.13e5	2.83e5	2.43e6	2.22e6	inactive
CG31288	2	2.24e5	2.78e5	6.70e5	5.11e5	inactive
Sec24AB	1	7.21e5	7.19e5	2.18e6	2.40e6	inactive
Sec24AB	2	3.31e5	3.66e5	1.37e6	1.13e6	inactive
CG13476	1	2.37e5	2.15e5	1.74e6	1.43e6	inactive
Tcs5	1	1.29e5	96986	1.45e6	1.66e6	inactive
